{
  "source": "paper PMC11408249",
  "about": "(npj Imaging, 2024)",
  "data": [
    {"test": "peptide synthesis", "conditions": "conjugation step, 220 nm", "units": {"final HPLC purity": "%"}, "values": [
      {"substance": "Ac-C-EWFMKDRLLNRPT", "final HPLC purity": 90},
      {"substance": "Ac-C-TEFPLRMRDWLNK-COOH", "final HPLC purity": 97},
      {"substance": "Ac-C-DARKSEVQK-COOH", "final HPLC purity": 90},
      {"substance": "Ac-C-RDKKVAEQS", "final HPLC purity": 92}
    ]}
  ]
}
